Patent US9334256B2, “Agents and methods for treating ischemic and other diseases” (NoNO INC., priority 2011, dated 2016)
Some entries share one result that the patent states for a list of compounds. For at least one compound, name, drawing or mass did not settle the structure.

Assays:
[1] = Stability in rat microsomes; type: in vitro ADME; settings: class by half-life
[2] = Solubility in aqueous solution; type: physicochemical

SMILES	Stability in rat microsomes [1]	Solubility in aqueous solution [2]
COc1cc(OC)c2c(C)c(Cc3ccccc3)c(=O)[nH]c2c1 [Compound 56]	high (Stability was classified as high, medium or low if the half-life was greater than 30 min, 5-30 minutes or less than five minutes respectively)	–
COc1cc2c(cc1OC)C(c1sc3cccc(C)c3c1Cl)NCC2 (centres unmarked) [Compound 73]	–	medium (100-500 micromolar)
